Reference: publication PMC5365316
These are yes or no findings as the source states them, for the method shown. In cells and extracts the contact can be indirect. Here binding means that the protein was enriched with, or labelled near, the bait; the list need not be complete. Tags and fused reporters may be left off the sequences shown.

Protein sequences, listed by entry. Tags and fused reporters are not part of them. Lines headed by an entry give the natural chain unless they say otherwise; changes in a name come on top. Residues count along the entry.
UniProt Q8IC42: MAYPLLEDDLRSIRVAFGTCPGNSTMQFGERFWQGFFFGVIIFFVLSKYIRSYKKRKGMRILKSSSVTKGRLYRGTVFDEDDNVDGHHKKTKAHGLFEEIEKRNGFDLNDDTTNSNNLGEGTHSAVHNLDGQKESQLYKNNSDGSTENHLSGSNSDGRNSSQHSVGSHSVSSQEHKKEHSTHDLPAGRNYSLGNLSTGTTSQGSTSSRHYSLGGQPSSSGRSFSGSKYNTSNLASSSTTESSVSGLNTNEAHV
UniProt O77310, residues 25-1417: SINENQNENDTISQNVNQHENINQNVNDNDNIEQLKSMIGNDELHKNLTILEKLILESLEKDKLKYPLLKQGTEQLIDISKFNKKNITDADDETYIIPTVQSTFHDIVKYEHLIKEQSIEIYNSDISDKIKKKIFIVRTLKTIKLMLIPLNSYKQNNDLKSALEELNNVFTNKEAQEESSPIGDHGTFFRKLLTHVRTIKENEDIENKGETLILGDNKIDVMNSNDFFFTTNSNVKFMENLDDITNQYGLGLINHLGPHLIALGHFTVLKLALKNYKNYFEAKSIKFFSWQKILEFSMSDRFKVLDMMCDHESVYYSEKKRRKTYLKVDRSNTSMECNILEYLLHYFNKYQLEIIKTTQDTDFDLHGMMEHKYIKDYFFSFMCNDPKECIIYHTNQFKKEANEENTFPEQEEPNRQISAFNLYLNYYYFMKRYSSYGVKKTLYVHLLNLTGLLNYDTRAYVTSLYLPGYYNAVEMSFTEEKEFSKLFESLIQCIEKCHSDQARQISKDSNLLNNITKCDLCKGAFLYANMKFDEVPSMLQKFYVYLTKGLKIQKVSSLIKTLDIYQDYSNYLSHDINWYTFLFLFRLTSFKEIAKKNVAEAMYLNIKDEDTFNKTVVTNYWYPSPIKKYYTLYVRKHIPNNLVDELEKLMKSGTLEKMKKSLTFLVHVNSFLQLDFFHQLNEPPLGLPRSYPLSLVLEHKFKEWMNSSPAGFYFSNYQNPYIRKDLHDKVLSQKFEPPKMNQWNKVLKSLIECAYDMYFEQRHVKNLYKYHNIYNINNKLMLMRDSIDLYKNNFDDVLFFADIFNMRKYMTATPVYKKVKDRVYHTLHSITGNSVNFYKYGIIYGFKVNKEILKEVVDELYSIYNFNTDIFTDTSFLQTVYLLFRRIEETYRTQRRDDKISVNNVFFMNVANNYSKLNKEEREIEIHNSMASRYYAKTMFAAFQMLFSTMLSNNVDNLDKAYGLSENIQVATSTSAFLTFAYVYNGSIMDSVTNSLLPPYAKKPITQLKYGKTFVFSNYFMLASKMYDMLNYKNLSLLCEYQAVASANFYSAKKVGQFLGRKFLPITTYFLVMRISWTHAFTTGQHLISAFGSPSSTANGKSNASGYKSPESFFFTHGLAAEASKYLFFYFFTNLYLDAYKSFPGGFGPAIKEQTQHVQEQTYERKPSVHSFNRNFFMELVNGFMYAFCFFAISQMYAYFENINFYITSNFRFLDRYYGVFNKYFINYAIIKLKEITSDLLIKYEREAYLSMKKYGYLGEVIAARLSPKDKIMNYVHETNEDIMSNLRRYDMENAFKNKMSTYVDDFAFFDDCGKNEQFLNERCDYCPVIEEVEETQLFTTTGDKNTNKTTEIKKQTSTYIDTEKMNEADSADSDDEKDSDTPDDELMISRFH
UniProt P02730: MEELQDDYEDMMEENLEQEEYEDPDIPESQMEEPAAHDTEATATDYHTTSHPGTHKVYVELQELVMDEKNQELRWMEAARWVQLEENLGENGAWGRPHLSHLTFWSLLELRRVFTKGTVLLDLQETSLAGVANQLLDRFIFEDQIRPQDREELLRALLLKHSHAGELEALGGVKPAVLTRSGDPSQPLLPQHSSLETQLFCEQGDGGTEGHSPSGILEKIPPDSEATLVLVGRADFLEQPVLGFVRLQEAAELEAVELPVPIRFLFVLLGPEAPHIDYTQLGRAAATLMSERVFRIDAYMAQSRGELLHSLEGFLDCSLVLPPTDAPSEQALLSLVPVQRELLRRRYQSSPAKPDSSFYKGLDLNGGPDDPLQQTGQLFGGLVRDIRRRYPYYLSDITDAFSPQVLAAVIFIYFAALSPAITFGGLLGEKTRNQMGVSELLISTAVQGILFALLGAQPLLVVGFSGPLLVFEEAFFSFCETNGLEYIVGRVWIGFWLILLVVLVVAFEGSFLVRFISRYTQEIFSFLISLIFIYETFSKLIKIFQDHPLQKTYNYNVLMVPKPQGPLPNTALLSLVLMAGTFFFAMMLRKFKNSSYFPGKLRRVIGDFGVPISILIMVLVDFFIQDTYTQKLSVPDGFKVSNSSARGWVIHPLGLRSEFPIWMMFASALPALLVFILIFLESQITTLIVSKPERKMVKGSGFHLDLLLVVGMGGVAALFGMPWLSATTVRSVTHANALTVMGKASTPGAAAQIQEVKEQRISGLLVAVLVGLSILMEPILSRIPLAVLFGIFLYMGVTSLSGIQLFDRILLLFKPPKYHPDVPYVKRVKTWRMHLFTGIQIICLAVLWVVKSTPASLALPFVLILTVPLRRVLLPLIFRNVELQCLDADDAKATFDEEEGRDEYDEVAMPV
UniProt P13830: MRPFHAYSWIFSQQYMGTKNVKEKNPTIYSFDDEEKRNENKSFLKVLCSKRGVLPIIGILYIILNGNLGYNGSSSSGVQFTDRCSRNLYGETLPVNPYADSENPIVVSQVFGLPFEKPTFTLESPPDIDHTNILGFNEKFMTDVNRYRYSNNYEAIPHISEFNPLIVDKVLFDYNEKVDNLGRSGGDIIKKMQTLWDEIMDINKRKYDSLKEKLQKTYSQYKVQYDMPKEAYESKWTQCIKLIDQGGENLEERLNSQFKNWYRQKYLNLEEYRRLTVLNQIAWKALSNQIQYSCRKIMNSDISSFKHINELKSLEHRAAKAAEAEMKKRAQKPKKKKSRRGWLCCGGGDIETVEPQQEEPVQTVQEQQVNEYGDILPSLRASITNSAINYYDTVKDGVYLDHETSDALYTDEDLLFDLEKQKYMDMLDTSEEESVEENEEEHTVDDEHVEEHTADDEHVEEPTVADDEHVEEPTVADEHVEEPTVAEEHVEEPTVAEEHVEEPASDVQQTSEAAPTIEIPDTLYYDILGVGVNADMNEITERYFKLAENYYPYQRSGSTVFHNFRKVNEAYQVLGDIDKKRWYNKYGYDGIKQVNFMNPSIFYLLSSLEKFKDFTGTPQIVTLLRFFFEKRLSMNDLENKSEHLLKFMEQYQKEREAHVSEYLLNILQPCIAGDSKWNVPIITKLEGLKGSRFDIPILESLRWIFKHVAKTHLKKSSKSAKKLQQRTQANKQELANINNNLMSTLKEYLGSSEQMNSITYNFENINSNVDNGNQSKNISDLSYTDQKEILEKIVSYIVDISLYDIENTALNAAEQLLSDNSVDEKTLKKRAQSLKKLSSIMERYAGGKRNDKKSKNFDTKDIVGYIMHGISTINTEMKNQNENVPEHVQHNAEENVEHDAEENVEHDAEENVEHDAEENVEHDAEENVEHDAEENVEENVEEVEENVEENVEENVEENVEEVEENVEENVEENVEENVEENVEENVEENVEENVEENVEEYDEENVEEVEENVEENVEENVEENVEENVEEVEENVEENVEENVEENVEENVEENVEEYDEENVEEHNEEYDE

Target: T1, RhopH2-HA (P. falciparum RhopH2 with a triple hemagglutinin and single strep II tag at the C-terminus) (P. falciparum) (UniProt C0H571)
T1 sequence: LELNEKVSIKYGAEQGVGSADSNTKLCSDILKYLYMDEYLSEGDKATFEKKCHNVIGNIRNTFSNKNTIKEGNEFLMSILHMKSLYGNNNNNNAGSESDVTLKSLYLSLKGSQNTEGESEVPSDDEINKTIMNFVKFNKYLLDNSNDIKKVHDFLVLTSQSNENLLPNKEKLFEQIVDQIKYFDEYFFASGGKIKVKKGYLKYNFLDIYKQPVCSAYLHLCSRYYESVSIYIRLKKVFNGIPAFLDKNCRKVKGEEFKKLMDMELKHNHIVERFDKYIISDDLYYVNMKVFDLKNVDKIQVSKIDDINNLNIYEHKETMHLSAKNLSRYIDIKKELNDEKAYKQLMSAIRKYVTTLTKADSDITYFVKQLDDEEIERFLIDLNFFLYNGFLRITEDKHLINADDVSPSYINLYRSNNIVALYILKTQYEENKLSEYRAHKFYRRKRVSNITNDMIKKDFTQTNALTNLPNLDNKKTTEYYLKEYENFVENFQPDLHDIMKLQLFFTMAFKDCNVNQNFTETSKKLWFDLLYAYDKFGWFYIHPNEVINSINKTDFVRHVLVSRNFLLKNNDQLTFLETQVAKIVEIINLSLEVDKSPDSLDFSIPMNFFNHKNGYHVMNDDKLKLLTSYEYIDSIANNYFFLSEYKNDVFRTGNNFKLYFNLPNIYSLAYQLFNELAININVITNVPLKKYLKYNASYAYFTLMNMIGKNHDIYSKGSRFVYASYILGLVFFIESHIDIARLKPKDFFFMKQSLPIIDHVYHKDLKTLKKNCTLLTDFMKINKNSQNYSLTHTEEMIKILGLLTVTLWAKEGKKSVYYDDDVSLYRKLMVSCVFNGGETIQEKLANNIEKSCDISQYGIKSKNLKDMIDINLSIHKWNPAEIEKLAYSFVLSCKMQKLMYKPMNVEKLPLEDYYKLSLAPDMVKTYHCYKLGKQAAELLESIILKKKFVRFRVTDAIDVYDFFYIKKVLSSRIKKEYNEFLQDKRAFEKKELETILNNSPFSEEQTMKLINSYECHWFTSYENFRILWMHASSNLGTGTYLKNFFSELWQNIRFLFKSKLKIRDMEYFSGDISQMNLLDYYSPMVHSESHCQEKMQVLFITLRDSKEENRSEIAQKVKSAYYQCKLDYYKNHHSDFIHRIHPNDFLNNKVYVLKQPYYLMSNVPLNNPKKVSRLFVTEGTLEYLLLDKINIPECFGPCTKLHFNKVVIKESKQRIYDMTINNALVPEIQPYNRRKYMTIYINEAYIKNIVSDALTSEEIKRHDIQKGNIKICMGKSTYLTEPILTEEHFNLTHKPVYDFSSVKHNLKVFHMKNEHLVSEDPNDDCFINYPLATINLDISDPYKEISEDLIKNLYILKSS
Assay: affinity purification with mass spectrometry

Molecule: HSP70-x
- binding: binds

Molecule: PHIST protein PF3D7_0532300
- binding: binds

Molecule: PHIST protein PF3D7_0702500 (from UniProt Q8IC42)
- binding: binds

Molecule: RhopH1/Clag3.1 (from UniProt O77310 25-1417)
- binding: binds

Molecule: RhopH1/Clag9
- binding: binds

Molecule: ankyrin (human (endogenous in erythrocytes))
- binding: binds

Molecule: band 3 (from UniProt P02730 1-911)
- binding: binds

Molecule: glycophorin-binding protein 130 (GBP130)
- binding: binds

Molecule: protein 4.1 (from UniProt P11171-4)
- binding: binds

Molecule: ring erythrocyte surface antigen (RESA) (from UniProt P13830)
- binding: binds

Molecule: small exported membrane protein 1 (SEMP1)
- binding: binds

Molecule: spectrin (human (endogenous in erythrocytes)) (complex)
- binding: binds

Molecule: tubulin (human (endogenous in erythrocytes))
- binding: binds

B1: RhopH3 (protein, UniProt Q8I395 25-897)
chain: KDVFAGFVTKKLKTLLDCNFALYYNFKGNGPDAGSFLDFVDEPEQFYWFVEHFLSVKFRVPKHLKDKNIHNFTPCLNRSWVSEFLKEYEEPFVNPVMKFLDKEQRLFFTYNFGDVEPQGKYTYFPVKEFHKYCILPPLIKTNIKDGESGEFLKYQLNKEEYKVFLSSVGSQMTAIKNLYSTVEDEQRKQLLKVIIENESTNDISVQCPTYNIKLHYTKECANSNNILKCIDEFLRKTCEKKTESKHPSADLCEHLQFLFESLKNPYLDNFKKFMTNSDFTLIKPQSVWNVPIFDIYKPKNYLDSVQNLDTECFKKLNSKNLIFLSFHDDIPNNPYYNVELQEIVKLSTYTYSIFDKLYNFFFVFKKSGAPISPVSVKELSHNITDFSFKEDNSEIQCQNVRKSLDLEVDVETMKGIAAEKLCKIIEKFILTKDDASKPEKSDIHRGFRILCILISTHVEAYNIVRQLLNMESMISLTRYTSLYIHKFFKSVTLLKGNFLYKNNKAIRYSRACSKASLHVPSVLYRRNIYIPETFLSLYLGLSNLVSSNPSSPFFEYAIIEFLVTYYNKGSEKFVLYFISIISVLYINEYYYEQLSCFYPKEFELIKSRMIHPNIVDRILKGIDNLMKSTRYDKMRTMYLDFESSDIFSREKVFTALYNFDSFIKTNEQLKKKNLEEISEIPVQLETSNDGIGYRKQDVLYETDKPQTMDEASYEETVDEDAHHVNEKQHSAHFLDAIAEKDILEEKTKDQDLEIELYKYMGPLKEQSKSTSAASTSDEISGSEGPSTESTSTGNQGEDKTTDNTYKEMEELEEAEGTSNLKKGLEFYKSSLKLDQLDKEKPKKKKSKRKKKRDSSSDRILLEESKTFTSENEL
- binding: binds
